# Assay results from PubChem BioAssay AID540256 (National Center for Advancing Translational Sciences (NCATS), 2011).
# About 3,700 (1.2%) of roughly 300,000 compounds were called active. The shares of active, inactive and inconclusive entries below differ from those in the screen. The call rests on the fitted dose curve; tested in HEK293 cells. A potency beside an inconclusive call is a rough fit, not a confirmed value.
# Test: qHTS for Inhibitors of binding or entry into cells for Lassa Virus; further: nearly all actives have a fitted effect of over 50% in size
# Conditions: Lassa virus pseudotype entry inhibition, cell reporter; activity change, negative = inhibition: at 37.9 µM (top of the series) unless noted
# On the % scale 0 is the no-effect control and ±100 the full control effect; potency means the concentration at half of the fitted maximal effect.
Compound,Potency,"activity change, negative = inhibition"
O=C(Nc1ccc2nc(-c3ccccn3)[nH]c2c1)C1CCCCC1,"inconclusive: 29.1 µM [inhibitor, single point]",
COc1ccc(OC)c(NC(=O)c2cccc(N3C(=O)C4C5CCC(C5)C4C3=O)c2)c1 (configuration not stated),"inconclusive: 35.5 µM [inhibitor, single point]",
Cc1ccc(N=Nc2c(C)[nH]n(-c3ccccc3)c2=O)c(C)c1,,inactive: -9.35%
O=C(CN1CCc2ccccc2C1)Nc1cccc(S(=O)(=O)N2CCOCC2)c1,"inconclusive: 11.2 µM [inhibitor, partial curve]",
COc1ccc(CCC(=O)NCCOc2ccc(Cl)cc2)cc1,,inactive: 7.56%
CCOC(=O)C1CCN(C(=O)c2cc(S(=O)(=O)N3CCCCC3)ccc2C)CC1,"inconclusive: 2.51 µM [inhibitor, partial curve, poor fit]",
COc1ccccc1CCNC(=O)Nc1cccc([N+](=O)[O-])c1,,inactive: -10.4% [at 46.1 µM]
O=C1CCCCC1(O)Cc1ccc2c(c1)OCO2 (configuration not stated),,inactive: 28.1% [at 46.1 µM]
CCOC(=O)c1[nH]c2ccccc2c1CCCN1C(=O)c2ccccc2C1=O,,inactive: -10.7%
CC1CCc2sc(C(=O)NCc3ccccn3)cc2C1 (configuration not stated),,inactive: 6.92%
COc1ccc(NC(=O)c2cccs2)cc1C(=O)N1CCN(c2ccccc2)CC1,"inconclusive: 10 µM [inhibitor, partial curve, poor fit]",
O=C(NC(=S)NNC(=O)c1ccccc1O)c1cccs1,"inconclusive: 20 µM [inhibitor, partial curve, poor fit]",
Nc1ccc(Cl)cc1/C(=N/O)c1ccccc1,"inconclusive: 1 µM [inhibitor, single point]",
Cc1ccc(C)c(NC(=O)c2cc(-c3cc(C)ccc3O)n[nH]2)c1,"inconclusive: 3.55 µM [activator, single point]",
O=C(NCCCNC(=O)c1ccco1)c1cccc(F)c1,"inconclusive: 3.55 µM [inhibitor, partial curve, poor fit]",
CCOC(=O)/C(C#N)=C/C1=C(N2CCCC2)CC(C)(CC)OC1 (configuration not stated),,inactive: -13.9%
O=C(CSc1nc2ccccc2s1)N1CCCCC1,,inactive: 20.1%
Cc1ccc(NC(=O)/C=C/c2ccccc2)c(Br)c1,,inactive: 4.85% [at 46.1 µM]
O=C(/C=C/N1CCOCC1)c1coc2ccccc12,"inconclusive: 35.5 µM [inhibitor, single point]",
CCn1c(SCC(=O)Nc2ccc(F)cc2)nnc1C1CC1,,inactive: 15.5% [at 46.1 µM]
CN(C)C1(CNC(=O)Nc2ccc(Cl)c(Cl)c2)CCCCC1,"inconclusive: 35.5 µM [inhibitor, single point]",
COc1ccc(N2CCN(C(=O)c3oc4ccccc4c3NC(=O)Cc3ccc(OC)c(OC)c3)CC2)cc1,"inconclusive: 3.16 µM [inhibitor, full curve, poor fit]",
OCCC1CN(Cc2ccc3cc(Cl)ccc3n2)CCN1Cc1ccsc1 (configuration not stated),"inconclusive: 11.2 µM [inhibitor, partial curve, poor fit]",

# Arranged by number of heavy atoms (smallest number first): part of the list above.
Compound,Potency,"activity change, negative = inhibition"
O=C(/C=C/N1CCOCC1)c1coc2ccccc12,"inconclusive: 35.5 µM [inhibitor, single point]",
O=C(NCCCNC(=O)c1ccco1)c1cccc(F)c1,"inconclusive: 3.55 µM [inhibitor, partial curve, poor fit]",
CCOC(=O)/C(C#N)=C/C1=C(N2CCCC2)CC(C)(CC)OC1 (configuration not stated),,inactive: -13.9%

# Further compounds follow.

Compound,Potency,"activity change, negative = inhibition"
Cc1cc(=O)oc2cc(OCC(O)CN3CCc4ccccc4C3)ccc12 (configuration not stated),"inconclusive: 35.5 µM [inhibitor, single point]",
Nc1ccc(OC(=O)Nc2ccc(O)cc2)cc1,"inconclusive: 20 µM [inhibitor, partial curve, poor fit]",
CC1(C)CC(=O)C2=C(C1)Nc1cc3c(cc1C2c1ccc(F)cc1)OCO3 (configuration not stated),"inconclusive: 16.4 µM [inhibitor, single point]",
CCCCn1c(N)c(N(CCC(C)C)C(=O)COC(=O)c2cccnc2SC)c(=O)[nH]c1=O,"inconclusive: 2.24 µM [activator, partial curve, poor fit]",
O=C(O)C(=O)/C(=C\c1cccc2ccccc12)c1ccc2ccccc2n1,"inconclusive: 22.4 µM [inhibitor, single point]",
CNS(=O)(=O)c1ccc(NC(=O)c2ccccn2)cc1,"inconclusive: 0.708 µM [activator, partial curve, poor fit]",
Cc1ccc(OCC(=O)N2CCN(c3nnc(-c4ccccc4)c4ccccc34)CC2)cc1,"inconclusive: 23.1 µM [inhibitor, single point]",
COc1cc(CN=Cc2c(O)n(C(C)(C)C)c(=O)[nH]c2=O)cc(OC)c1,"inconclusive: 12.6 µM [inhibitor, partial curve, poor fit]",
COc1ccc(C(=O)Nc2ccc(SC(F)F)cc2)cc1,,inactive: 15%
O=C1NC(c2ccc(Cl)cc2)Nc2ccccc21 (configuration not stated),"inconclusive: 20 µM [activator, partial curve, poor fit]",
Cc1cc(NC(=O)CCSc2nc(-c3ccco3)cc(C(F)(F)F)n2)n(-c2ccccc2)n1,"inconclusive: 10 µM [inhibitor, partial curve, poor fit]",
Cc1ccc(-n2c(O)c(/C=N/c3ncn[nH]3)c3ccccc3c2=O)cc1,"inconclusive: 35.5 µM [inhibitor, single point]",
CCOC(=O)c1c(NC(=O)CN2CCN(C)CC2)sc(C(=O)Nc2ccccc2)c1C,,inactive: -22.8%
COc1cccc(-c2nc(NCc3ccco3)c3ccccc3n2)c1O,"inconclusive: 4.47 µM [activator, partial curve, poor fit]",
COc1ccc(OC)c(NC(=O)CSc2c3c(nc4ccccc24)CCCC3)c1,"inconclusive: 35.5 µM [inhibitor, single point]",
CC(C)c1cccc(OCCCCN(C)C)c1,"inconclusive: 35.5 µM [inhibitor, partial curve, poor fit]",
Cc1cccc(N2CCN(C(=O)c3cc(S(=O)(=O)N(C)C)ccc3N3CCCC3)CC2)c1C,"inconclusive: 3.98 µM [inhibitor, partial curve, poor fit]",
S=c1nc[nH]c2c1ncn2-c1ccc(Cl)cc1,"inconclusive: 3.98 µM [activator, single point]",
COc1ccccc1OCC(=O)Nc1cccc(C(=O)N2CCOCC2)c1,,inactive: 0.291%
COc1ccc(CCNC(=O)C(=O)NCC2OCCN2S(=O)(=O)c2ccc(Br)cc2)cc1OC (configuration not stated),"inconclusive: 16.4 µM [inhibitor, single point]",
COc1ccc(/C=C2\CCc3ccccc3C2=O)cc1Cn1cccn1,"inconclusive: 23.1 µM [inhibitor, single point]",
CCCCn1c(SCc2ccc(Cl)cc2)nc2c1c(=O)[nH]c(=O)n2C,"inconclusive: 1.41 µM [inhibitor, full curve]",
O=C(Nc1ccc(Cc2ccncc2)cc1)c1ccc(S(=O)(=O)N2CCOCC2)cc1,"inconclusive: 29.1 µM [inhibitor, single point]",

Compound,Potency,"activity change, negative = inhibition"
S=C(Nc1ccc(Br)cc1)NC1CCN(Cc2ccccc2)CC1,"inconclusive: 11.2 µM [inhibitor, partial curve, poor fit]",
O=C(Cn1cc(C(F)(F)F)cc(Cl)c1=O)NCc1ccccc1,"inconclusive: 3.16 µM [activator, partial curve, poor fit]",
Cc1cccc(NC(=O)CCC(=O)N/N=C/c2ccc(O)cc2O)c1,"inconclusive: 22.4 µM [inhibitor, single point]",
CCN(CC)c1ccc(/C=N/N2C(=O)c3ccccc3C2=O)cc1,,inactive: 0.225%
COc1c(C)cc(S(=O)(=O)NCc2ccco2)c(C)c1C,,inactive: -5.22%
O=C(O)c1cccc(NC(=O)c2ccccc2NC(=O)c2ccccc2F)c1,,inactive: 2.02% [at 46.1 µM]
CN(C)c1cccc(C(=O)N/N=C/c2ccccc2F)c1,active: 10 µM,
CN(CC(=O)Nc1ccc2c(c1)OCCO2)S(=O)(=O)c1ccc(F)cc1,"inconclusive: 31.6 µM [activator, single point]",
COc1cc2nc(SCC(=O)NCc3ccco3)n(Cc3ccc(Cl)cc3)c(=O)c2cc1OC,"inconclusive: 10.3 µM [inhibitor, partial curve]",
CCCC(=O)N1c2ncnn2C2(CCCCC2)[C@@H]2CCCC[C@@H]21,,inactive: -5.24% [at 46.1 µM]
Cc1cccn2c(=O)c3cc(C(=O)NC(C)c4ccccc4)c(=N)n(CCCn4ccnc4)c3nc12 (configuration not stated),"inconclusive: 11.2 µM [inhibitor, partial curve, poor fit]",
COc1ccc(C(=O)N(C)C2CCCN(Cc3ccccc3F)C2)cc1C (configuration not stated),"inconclusive: 14.1 µM [inhibitor, single point]",
COc1ccc(N(CC(=O)Nc2ccccc2OC)S(=O)(=O)c2ccc(NC(C)=O)cc2)cc1,active: 3.16 µM,
O=C1NC(=NCc2ccccc2)S/C1=C/c1ccc(O)cc1,"inconclusive: 14.1 µM [inhibitor, partial curve, poor fit]",
COc1ccc(S(=O)(=O)NCCSCc2ccccc2C)cc1Br,"inconclusive: 1.3 µM [inhibitor, single point]",
Cc1ccc(OC(=O)c2cc(-c3ccc4c(c3)OCCO4)on2)c(C)c1,,inactive: 7.19% [at 46.1 µM]
CCO/N=C(/C)c1c(O)cc(-c2ccccc2)n(-c2ccccc2)c1=O,"inconclusive: 32.6 µM [activator, partial curve, poor fit]",
C#CCN1C(=O)[C@]2(O[C@H](C)CC3=CCCC32)c2c(Br)cccc21 (some centres not stated),"inconclusive: 0.168 µM [activator, full curve, poor fit]",
O=C1/C(=C/c2ccccn2)COc2ccccc21,"inconclusive: 1.26 µM [inhibitor, single point]",
CC(C)Oc1ccc(C(=O)N2CCCC2C(=O)O)cc1 (configuration not stated),"inconclusive: 0.0046 µM [inhibitor, full curve, poor fit]",
O=C(NCC(c1ccco1)N1CCCC1)c1ccc(Cl)c(S(=O)(=O)N2CCc3ccccc32)c1 (configuration not stated),"inconclusive: 11.2 µM [inhibitor, partial curve]",
